According to paper doi:10.1101/2024.03.11.584487:
Where two headings read alike, the source gives them in different places. No constants are given. Whether binding was seen depends on the method and setting. In cells and extracts the contact can be indirect. Some entries that bind do so weakly or less than the wild type. Blank lines part the entries; values can stand above or below the molecule they belong to.

Chains of the proteins cited; added tags and fusions are not shown.
UniProt Q925T6: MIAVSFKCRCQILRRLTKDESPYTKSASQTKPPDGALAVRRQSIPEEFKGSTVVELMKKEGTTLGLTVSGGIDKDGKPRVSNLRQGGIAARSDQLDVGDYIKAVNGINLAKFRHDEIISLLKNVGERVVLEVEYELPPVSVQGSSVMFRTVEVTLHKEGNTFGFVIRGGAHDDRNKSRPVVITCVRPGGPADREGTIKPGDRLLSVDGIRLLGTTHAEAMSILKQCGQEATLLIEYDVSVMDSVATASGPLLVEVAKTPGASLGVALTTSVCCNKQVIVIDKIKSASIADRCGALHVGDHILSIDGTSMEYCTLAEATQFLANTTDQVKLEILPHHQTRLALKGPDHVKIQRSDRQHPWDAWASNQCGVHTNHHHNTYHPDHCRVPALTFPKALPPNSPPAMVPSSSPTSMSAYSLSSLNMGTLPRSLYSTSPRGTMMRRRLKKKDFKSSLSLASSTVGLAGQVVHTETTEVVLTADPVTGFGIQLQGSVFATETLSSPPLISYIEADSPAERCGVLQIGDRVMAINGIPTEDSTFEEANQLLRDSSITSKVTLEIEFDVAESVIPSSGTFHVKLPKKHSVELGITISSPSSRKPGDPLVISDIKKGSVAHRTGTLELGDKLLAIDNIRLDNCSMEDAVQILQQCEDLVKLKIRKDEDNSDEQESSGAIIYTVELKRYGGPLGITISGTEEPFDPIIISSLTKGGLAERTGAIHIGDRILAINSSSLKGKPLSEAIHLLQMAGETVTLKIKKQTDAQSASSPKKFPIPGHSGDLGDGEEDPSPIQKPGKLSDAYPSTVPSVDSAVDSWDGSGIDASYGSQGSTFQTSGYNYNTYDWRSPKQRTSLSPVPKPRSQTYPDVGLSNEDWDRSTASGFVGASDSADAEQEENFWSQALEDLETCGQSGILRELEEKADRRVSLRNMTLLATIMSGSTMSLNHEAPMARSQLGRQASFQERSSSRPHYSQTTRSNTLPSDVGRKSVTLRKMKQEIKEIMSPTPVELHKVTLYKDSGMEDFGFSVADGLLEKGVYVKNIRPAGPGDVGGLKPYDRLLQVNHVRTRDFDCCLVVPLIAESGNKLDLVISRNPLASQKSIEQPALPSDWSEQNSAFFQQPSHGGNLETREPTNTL
UniProt Q6NXJ0: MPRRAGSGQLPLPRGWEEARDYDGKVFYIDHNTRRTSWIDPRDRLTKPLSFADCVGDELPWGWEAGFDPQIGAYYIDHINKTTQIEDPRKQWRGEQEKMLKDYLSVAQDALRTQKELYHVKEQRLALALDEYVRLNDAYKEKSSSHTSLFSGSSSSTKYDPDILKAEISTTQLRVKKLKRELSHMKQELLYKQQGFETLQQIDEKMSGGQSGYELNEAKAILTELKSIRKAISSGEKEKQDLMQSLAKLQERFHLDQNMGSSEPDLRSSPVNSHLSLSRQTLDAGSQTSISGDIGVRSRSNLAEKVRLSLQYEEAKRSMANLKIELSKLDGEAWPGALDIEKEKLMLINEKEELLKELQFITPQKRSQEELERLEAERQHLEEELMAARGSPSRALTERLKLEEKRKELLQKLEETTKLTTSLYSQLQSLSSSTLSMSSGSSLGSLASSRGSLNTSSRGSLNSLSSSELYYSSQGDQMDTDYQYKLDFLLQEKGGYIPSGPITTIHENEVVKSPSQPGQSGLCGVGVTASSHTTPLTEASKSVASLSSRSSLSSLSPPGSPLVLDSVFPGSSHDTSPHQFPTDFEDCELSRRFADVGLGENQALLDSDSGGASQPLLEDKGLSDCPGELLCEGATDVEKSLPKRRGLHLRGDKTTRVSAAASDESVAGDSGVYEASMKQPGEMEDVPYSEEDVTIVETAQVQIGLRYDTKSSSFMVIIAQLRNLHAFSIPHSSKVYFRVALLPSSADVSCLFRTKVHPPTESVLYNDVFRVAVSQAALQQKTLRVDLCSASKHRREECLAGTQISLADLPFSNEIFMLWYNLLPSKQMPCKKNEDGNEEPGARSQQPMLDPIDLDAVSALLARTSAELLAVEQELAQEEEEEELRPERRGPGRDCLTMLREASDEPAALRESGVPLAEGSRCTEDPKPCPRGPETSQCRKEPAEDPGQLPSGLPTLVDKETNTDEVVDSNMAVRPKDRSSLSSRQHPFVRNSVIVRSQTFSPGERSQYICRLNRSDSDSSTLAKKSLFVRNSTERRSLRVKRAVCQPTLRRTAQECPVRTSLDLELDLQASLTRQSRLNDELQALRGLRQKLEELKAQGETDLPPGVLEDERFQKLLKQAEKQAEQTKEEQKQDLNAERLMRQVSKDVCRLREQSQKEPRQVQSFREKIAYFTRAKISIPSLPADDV

What was measured:
Test in all cases: co-IP
[1] = target: T1, huntingtin-associated protein 1 (HAP1) (mouse (endogenous in forebrain)) (UniProt O35668)
T1 sequence: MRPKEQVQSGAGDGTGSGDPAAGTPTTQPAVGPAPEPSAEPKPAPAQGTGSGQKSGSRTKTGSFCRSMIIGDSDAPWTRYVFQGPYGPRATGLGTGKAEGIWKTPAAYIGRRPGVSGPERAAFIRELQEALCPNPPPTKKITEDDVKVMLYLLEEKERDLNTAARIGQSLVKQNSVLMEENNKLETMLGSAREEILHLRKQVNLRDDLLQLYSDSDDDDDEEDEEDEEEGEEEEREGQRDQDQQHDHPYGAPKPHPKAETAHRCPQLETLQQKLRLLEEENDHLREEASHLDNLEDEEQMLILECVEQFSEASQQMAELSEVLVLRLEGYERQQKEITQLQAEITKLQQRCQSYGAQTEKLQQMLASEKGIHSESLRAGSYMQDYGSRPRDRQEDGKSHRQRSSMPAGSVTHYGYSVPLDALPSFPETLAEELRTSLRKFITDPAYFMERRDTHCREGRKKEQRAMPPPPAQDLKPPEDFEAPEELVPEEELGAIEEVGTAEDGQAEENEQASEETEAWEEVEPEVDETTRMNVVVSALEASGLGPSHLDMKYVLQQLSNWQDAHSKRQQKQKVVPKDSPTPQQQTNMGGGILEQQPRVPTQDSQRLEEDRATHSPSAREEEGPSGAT

[2] = target: glutamate receptor interacting protein 1 (GRIP1) (mouse (endogenous in forebrain)) (UniProt Q925T6)
[3] = target: WWC2 (WW and C2 domain-containing protein 2) (mouse (endogenous in brain)) (UniProt Q6NXJ0)
[4] = target: WWC2 (WW and C2 domain-containing protein 2) (mouse (endogenous in brain)) (UniProt Q6NXJ0); remark: listed apart in the source

binding [1]: binds | binding [2]: binds
Molecule: WWC2 (WW and C2 domain-containing protein 2) (from UniProt Q6NXJ0 1-1187)

binding [3]: binds
Molecule: glutamate receptor interacting protein 1 (GRIP1) (from UniProt Q925T6 1-1127)

binding [4]: binds
B1: huntingtin-associated protein 1 (HAP1) (protein, UniProt O35668 1-628)
chain: T1 sequence

binding [4]: binds
B2: gephyrin (protein, UniProt Q8BUV3 1-769)
chain: MATEGMILTNHDHQIRVGVLTVSDSCFRNLAEDRSGINLKDLVQDPSLLGGTISAYKIVPDEIEEIKETLIDWCDEKELNLILTTGGTGFAPRDVTPEATKEVIEREAPGMALAMLMGSLNVTPLGMLSRPVCGIRGKTLIINLPGSKKGSQECFQFILPALPHAIDLLRDAIVKVKEVHDELEDLPSPPPPLSPPPTTSPHKQTEDKGVQCEEEEEEKKDSGVASTEDSSSSHITAAALAAKIPDSIISRGVQVLPRDTASLSTTPSESPRAQATSRLSTASCPTPKQIRRPDESKGVASRVGSLKARLPSCSSTYSVSEVQSRCSSKENILRASHSAVDITKVARRHRMSPFPLTSMDKAFITVLEMTPVLGTEIINYRDGMGRVLAQDVYAKDNLPPFPASVKDGYAVRAADGPGDRFIIGESQAGEQPTQTVMPGQVMRVTTGAPIPCGADAVVQVEDTELIRESDDGTEELEVRILVQARPGQDIRPIGHDIKRGECVLAKGTHMGPSEIGLLATVGVTEVEVNKFPVVAVMSTGNELLNPEDDLLPGKIRDSNRSTLLATIQEHGYPTINLGIVGDNPDDLLNALNEGISRADVIITSGGVSMGEKDYLKQVLDIDLHAQIHFGRVFMKPGLPTTFATLDIDGVRKIIFALPGNPVSAVVTCNLFVVPALRKMQGILDPRPTIIKARLSCDVKLDPRPEYHRCILTWHHQEPLPWAQSTGNQMSSRLMSMRSANGLLMLPPKTEQYVELHKGEVVDVMVIGRL
